Assay results published in patent US12630500B2, “Hexasubstituted radialene compounds and applications thereof” (THE UNIVERSITY OF NORTH CAROLINA AT CHARLOTTE, priority 2019, dated 2026).

Assays:
[1] = Laboratory scale flow cell with MV(SO3)2 anolyte
[2] = Galvanostatic charge-discharge in symmetric static H-cell; conditions: after 50 cycles (12 days)

COC(=O)[C-](C#N)C1=C([C-](C#N)C(=O)OC)C1=C(C#N)C#N.[Na+].[Na+] (centres unmarked) [Compound 3, diester-tetracyano [3] radialene dianion]
electrochemical yield of the flow cell ([1]; experimental vs. theoretical capacity, 50 cycles): around 25% | coulombic efficiency ([1]; flow cell, 50 cycles, 15 mA, 2.5 mL/min): 99.609% | capacity loss ([1]; flow cell, fifty cycles): 0.046 % per cycle | coulombic efficiency [2]: 98.7% | energy efficiency [2]: 72%
